Measurements published in patent US20190100594A1.
Changes are numbered by the printed parent chain. No constants are given. Whether binding was seen depends on the method and setting. Some entries that bind do so weakly or less than the wild type.

Chains of the proteins cited; added tags and fusions are not shown. Residues count along the entry.
UniProt Q9Y5U5, residues 26-241: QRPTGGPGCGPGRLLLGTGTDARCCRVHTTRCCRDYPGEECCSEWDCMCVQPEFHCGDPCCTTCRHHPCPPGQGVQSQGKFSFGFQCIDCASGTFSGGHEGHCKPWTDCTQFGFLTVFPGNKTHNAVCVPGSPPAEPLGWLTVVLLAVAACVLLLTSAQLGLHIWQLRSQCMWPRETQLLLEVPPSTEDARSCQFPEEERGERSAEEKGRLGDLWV

B1: B2 (VHH, not shown: a dimerising Fc or GST; small tags and cut ends)
VHH: QVQLQESGGGLVQPGGSLRLSCAASGSVFSIDSMSWFRQAPGNERELVALITGGHTTTYGDSVKGRFTISRASAPNTVHLQMNSLQPEDTAVYYCNAAVSTGWGRNADDYWGQGTQVTVS
B2: E2 (VHH, not shown: a dimerising Fc or GST; small tags and cut ends)
VHH: B1 VHH with H55R, G60A, H79Y, Q86K, A98V
B3: F2 (VHH, not shown: a dimerising Fc or GST; small tags and cut ends)
VHH: QLVQSGGGLVQPGESLRLSCAASGSVFSIDSVSWFRQGPGNERELVALITGGRTTTYADSVKGRFTISRANAPNTVHLRMNSLKPEDTAVYYCNAAVSTGWGRNADDYWGQGTQVTVS
B4: B3 (VHH, not shown: a dimerising Fc or GST)
VHH: QVQLVQSGGGLVQPGGSLRLICAASGSVFSIDSMSWFRQRPGNERELVALITGGRTTTYSDSVKGRFTISRASALNTVHLQMNSLKPEDTAVYYCNAALSTGWGRDASAYWGQGTQVTVS
B5: B7 (VHH, not shown: a dimerising Fc or GST)
VHH: B1 VHH with A40T, L50H, H55R, G60A, S84N, Q86K
B6: C7 (VHH, not shown: a dimerising Fc or GST)
VHH: QVQLQESGGGLVQAGGSLRLSCTASGSIFSIDDMGWYRLAPGKQRELVAVHSGSSTNYGDSVKGRFTISGDSAKNTVYLQMHRLEPEDTAVYYCYAAISSGWGRDAEDYWGQGTQVTVS
B7: C4 (VHH, not shown: a dimerising Fc or GST)
VHH: B1 VHH with Q5V, E6Q, G16E, A40G, H55R, G60A, S73N, Q86K, N106S
B8: B5 (VHH, not shown: a dimerising Fc or GST)
VHH: B1 VHH with Q5V, E6Q, G16E, A40G, H55R, G60A, S73N, Q86E
B9: H11 (VHH, not shown: a dimerising Fc or GST)
VHH: B1 VHH with Q5V, E6Q, H55R, G60A, Q86K, A98V
B10: B12 (VHH, not shown: a dimerising Fc or GST)
VHH: QVQLQQSGGGLVQAGGSLRLSCAASGSIFSIDAMGWYRLAPGKQRELVAVIDGVSPNYADSVKGRFTISSDIAKNTVYLQMHSPKPEDTAVYYCNADVSTGWGRPADHYWGQGTQVTVS
B11: F05 (VHH, not shown: a dimerising Fc or GST; small tags and cut ends)
VHH: QVQLVQSGGGLVQAGGSLRLSCTASGSIFSINHMAWYRQAPGKQREMVAHITGGASTKYADSVKGRFTISRDSALNTVSLRMNSLKPEDTAVYYCNAEVNEGWNADYYDVWGQGTQVTVSS
B12: C06 (VHH, not shown: a dimerising Fc or GST; small tags and cut ends)
VHH: QVQLQESGGGLVQAGGSLRLSCAASGSVFSIDAMGWYRLAPGQQRELVAVLNGISSAKYADSVKGRFTISGDSAKNAVYLQMDGLKPEDTAVYYCYADVSTGWGRDAHGYWGQGTQVTVSS
B13: 2A1 (VHH, not shown: a dimerising Fc or GST; small tags and cut ends)
VHH: EVQLVQSGGGLVQPGGSLRLSCAASGNIFSIDAMGWYRQAPGRQRELVAQIPGGPTDSVKGRFTVSGNSAKNTGYLQMNTLKPEDTAVYYCNIVASTSWGSPSKVYWGQGTQATVSS
B14: hzC06v3.4 (VHH)
VHH: EVQLLESGGGEVQPGGSLRLSCAASGSVFSIDAMGWYRQAPGKQRELVAVLSGISSAKYAESVKGRFTISRDNAKNTVYLQMSSLRAEDTAVYYCYADVSTGWGRDAHGYWGQGTLVTV
B15: hzC06v3.6 (VHH)
VHH: B14 VHH with D72A, N73S, K75P
B16: hzC06v3.7 (VHH)
VHH: B14 VHH with E61A, V63A, K64P, N73A, A74V
B17: hzC06v3.9 (VHH)
VHH: B14 VHH with E61A, V63A, K64P
B18: hzC06v3.10 (VHH)
VHH: B14 VHH with E61D, S62A, D72A, N73S, K75P
B19: hzC06v3.11 (VHH)
VHH: B14 VHH with E61D, S62A, K64E, D72A, N73S, K75P
B20: hzC06v3.12 (VHH)
VHH: B14 VHH with E61A, V63A, K64P, D72A, N73S, K75P
B21: hzCC04v2 (VHH)
VHH: EVQLLESGGGEVQPGGSLRLSCAASGFTFSTHGMDWFRQAPGKGLEWVSAINNGGSWTSYASSVKGRFTISRDNAKNTLYLQMSSLRAEDTAVYWCQNRVTRGQGTLVTV
B22: hzCC04v2.2 (VHH)
VHH: B21 VHH with W95Y
B23: hzCC04v5 (VHH)
VHH: B21 VHH with G44D, N52Q, N53S
B24: hzCC04v1.2.1 (VHH)
VHH: B21 VHH with G44D, N53Q, W95Y

What follows are binders tested against GITR expressed on CHO cells (Homo sapiens (Human)) (UniProt Q9Y5U5) (assay: flow cytometry competition on GITR-expressing CHO cells; blocked ligand recombinant GITRL; readout GITRL bound, MFI-FL1).
In the case of B1, the binding is reported as “binds”.
For B2, the binding was “binds”.
B3 was tested, and the binding was “binds”.
In the case of B4, the binding is reported as “binds”.
In the case of B5, the binding is reported as “binds”.
B6 was tested, and the binding was “binds”.
With B7 the binding was “binds”.
For B8, the binding was “binds”.
In the case of B9, the binding is reported as “binds”.
With B10 the binding was “binds”.
In the case of B11, the binding is reported as “binds”.
B12 was tested, and the binding was “binds”.
With B13 the binding was “binds”.

What follows are binders tested against human GITR-CHO (human) (UniProt Q9Y5U5) (assay: flow cytometry on human GITR-CHO cells).
With B14 the binding was “binds”.
In the case of B15, the binding is reported as “binds”.
For B16, the binding was “binds”.
B17 was tested, and the binding was “binds”.
In the case of B18, the binding is reported as “binds”.
For B19, the binding was “binds”.
For B20, the binding was “binds”.
B21 was tested, and the binding was “binds”.
B22 was tested, and the binding was “binds”.
In the case of B23, the binding is reported as “binds”.
With B24 the binding was “binds”.

The binders below were run against GITR expressed on CHO cells (Homo sapiens (Human)) (UniProt Q9Y5U5) (assay: flow cytometry on GITR-expressing CHO cells, MFI-FL4).
With B1 the binding was “binds”.
In the case of B2, the binding is reported as “binds”.
For B3, the binding was “binds”.
With B4 the binding was “binds”.
With B5 the binding was “binds”.
In the case of B6, the binding is reported as “binds”.
For B7, the binding was “binds”.
B8 was tested, and the binding was “binds”.
B9 was tested, and the binding was “binds”.
B10 was tested, and the binding was “binds”.
B11 was tested, and the binding was “binds”.
For B12, the binding was “binds”.
In the case of B13, the binding is reported as “binds”.
